The list shows only some results of the screen, not a fair sample: it is rich in T/C values a quarter to a half above the control, in often repeated tests (any T/C) and in doses without a T/C. Other doses and runs of a compound stand elsewhere. T/C is the treated group as % of the vehicle group. Some doses have a count of surviving animals in place of a T/C: the source files T/C as zero there, which appears to mark a toxic dose or a test without result, not a measured value. Some survivor counts are full or nearly so, which does not show that the dose was tolerated: survival well below the control is almost never listed, so the zero probably covers shortened survival too. Survivors were counted at the toxicity check, usually on the fifth day, unless a day is given; later deaths do not show. Schedule codes are those of the source, read here as Q, the interval in days (D) or hours (H), X, the number of doses. Some doses were run more than once; their values stand side by side, smallest first. Where survival is the endpoint, this PubChem deposit counts one and a half times the control or more as active, and values a quarter to a half above the control carry no call in these data; other NCI protocols may use other cut-offs.
Test system: P388 leukemia ip, CD2F1 mice, survival T/C
Experiment: NCI In Vivo Anticancer Drug Screen. Data for tumor model P388 Leukemia (intraperitoneal) in CD2F1 (CDF1) mice
Settings: T/C endpoint: median survival time, higher T/C = longer survival
[1] = dose: 120.0 mg/kg/injection, schedule: Q01DX005 (ip), vehicle: saline with Tween-80
[2] = dose: 240.0 mg/kg/injection, schedule: Q01DX005 (ip), vehicle: saline with Tween-80
[3] = dose: 100.0 mg/kg/injection, schedule: Q01DX005 (ip), vehicle: saline with Tween-80
[4] = dose: 200.0 mg/kg/injection, schedule: Q01DX005 (ip), vehicle: saline with Tween-80
[5] = dose: 7.5 mg/kg/injection, schedule: Q01DX005 (ip), vehicle: Klucel (hydroxypropylcellulose) (HPC)
[6] = dose: 15.0 mg/kg/injection, schedule: Q01DX005 (ip), vehicle: Klucel (hydroxypropylcellulose) (HPC)
[7] = dose: 60.0 mg/kg/injection, schedule: Q01DX005 (ip), vehicle: Klucel (hydroxypropylcellulose) (HPC)
[8] = dose: 12.5 mg/kg/injection, schedule: Q01DX005 (ip), vehicle: Klucel (hydroxypropylcellulose) (HPC)
[9] = dose: 50.0 mg/kg/injection, schedule: Q01DX005 (ip), vehicle: Klucel (hydroxypropylcellulose) (HPC)

C[N+]1(Cc2ccccc2[N+](=O)[O-])CCCC1 was tested, and the survivor count (dose: 37.5 mg/kg/injection, schedule: Q01DX009 (ip), vehicle: saline with Tween-80) was 0 of 6, the survivor count (dose: 75.0 mg/kg/injection, schedule: Q01DX009 (ip), vehicle: saline with Tween-80) was 0 of 6 and the survivor count (dose: 150.0 mg/kg/injection, schedule: Q01DX009 (ip), vehicle: saline with Tween-80) was 0 of 6.

In the case of COC(=O)c1cc(=O)n(-c2ccccc2C)c(SC)n1, the survivor count (dose: 400.0 mg/kg/injection, schedule: Q04DX002 (ip), vehicle: Klucel (hydroxypropylcellulose) (HPC)) is reported as 0 of 6.

CC(=O)Nc1cc2cc(N=CN(C)C)ccc2oc1=O was tested, and the survivor count (dose: 240.0 mg/kg/injection, schedule: Q01DX005 (ip), vehicle: Klucel + Tween-80) was 1 of 6.

With C=CCOc1cc2c(cc1OCC=C)C(=O)c1cc3c(cc1C2=O)OCO3 the survivor count (dose: 30.0 mg/kg/injection, schedule: Q01DX005 (ip), vehicle: saline with Tween-80) was 6 of 6, the survivor count (dose: 60.0 mg/kg/injection, schedule: Q01DX005 (ip), vehicle: saline with Tween-80) was 6 of 6 and the survivor count [1] was 6 of 6. For the same molecule, the survivor count [2] was 6 of 6.

CN(C)CC(CN(C)C)C(=O)C(C)(C)C was tested, and the survivor count (dose: 240.0 mg/kg/injection, schedule: Q01DX005 (ip), vehicle: saline) was 0 of 6.

In the case of Nc1[nH]c(=O)ncc1-c1cccc(Cl)c1, the survivor count [1] is reported as 2 of 6 and the survivor count [2] is reported as 1 of 6.

In the case of CC1OC(O[C@H]2/C=C/C=C/C=C/C=C/C=C/C=C/C=C/[C@H](C)[C@@H](O)[C@@H](C)[C@H](C)OC(=O)C[C@H](O)C[C@H](O)CC[C@@H](O)[C@H](O)C[C@H](O)C[C@]3(O)C[C@H](O)[C@@H](C(=O)O)[C@H](C2)O3)C(O)C(N)C1O (some centres not stated), the T/C (dose: 16.0 mg/kg/injection, schedule: Q01DX009 (ip), vehicle: saline) is reported as 127 % of control, the survivor count (dose: 32.0 mg/kg/injection, schedule: Q01DX009 (ip), vehicle: saline) is reported as 2 of 6 and 3 of 6 and the survivor count (dose: 64.0 mg/kg/injection, schedule: Q01DX009 (ip), vehicle: saline) is reported as 0 of 6. The survivor count (dose: 128.0 mg/kg/injection, schedule: Q01DX009 (ip), vehicle: saline) was 0 of 6.

CCCCOc1cc2c(cc1C(C)c1ccccc1)OCO2 (configuration not stated) was tested, and the survivor count [3] was 6 of 6 and the survivor count [4] was 6 of 6.

For Cn1c(=O)c2[nH]c(Cc3ccsc3)nc2n(C)c1=O, the survivor count (dose: 200.0 mg/kg/injection, schedule: Q01DX009 (ip), vehicle: Klucel (hydroxypropylcellulose) (HPC)) was 6 of 6 and the survivor count (dose: 400.0 mg/kg/injection, schedule: Q01DX009 (ip), vehicle: Klucel (hydroxypropylcellulose) (HPC)) was 0 of 6.

With CCOC(=O)c1ccc2c(c1)CCC2 the survivor count (dose: 200.0 mg/kg/injection, schedule: Q01DX009 (ip), vehicle: acetone) was 4 of 6.

NC(=O)N/N=C1\CCC2CCCCC2C1 (configuration not stated) was tested, and the survivor count (dose: 200.0 mg/kg/injection, schedule: Q01DX001 (ip), vehicle: Klucel (hydroxypropylcellulose) (HPC)) was 3 of 6 and the survivor count (dose: 400.0 mg/kg/injection, schedule: Q01DX001 (ip), vehicle: Klucel (hydroxypropylcellulose) (HPC)) was 0 of 6.

In the case of CNC(=O)O/N=C(\CN=[N+]=[N-])C(C)(C)C, the survivor count (dose: 1.56 mg/kg/injection, schedule: Q01DX009 (ip), vehicle: saline with Tween-80) is reported as 2 of 6, the survivor count (dose: 3.13 mg/kg/injection, schedule: Q01DX009 (ip), vehicle: saline with Tween-80) is reported as 0 of 6 and the survivor count (dose: 6.25 mg/kg/injection, schedule: Q01DX009 (ip), vehicle: saline with Tween-80) is reported as 0 of 6.

With O=C(NCc1ccccc1)Nc1cccc2c(NC(=O)NCc3ccccc3)cccc12 the survivor count [1] was 5 of 5 and the survivor count [2] was 6 of 6.

For O=NC1C2CCC(C2)C1N=O.[Co].[c-]1[c-][c-][cH-][c-]1 (configuration not stated), the survivor count [3] was 0 of 6 and the survivor count [4] was 0 of 6.

For C=C1C(=O)O[C@@H]2/C=C(/CO)C3=CC(=O)[C@@](C)(C[C@@H](OC(=O)/C(C)=C\C)[C@@H]12)O3, the survivor count [5] was 6 of 6, the survivor count [6] was 1 of 6 and the survivor count (dose: 30.0 mg/kg/injection, schedule: Q01DX005 (ip), vehicle: Klucel (hydroxypropylcellulose) (HPC)) was 0 of 6. For the same molecule, the survivor count [7] was 0 of 6.

With C/C=N/NCCC#N the survivor count (dose: 50.0 mg/kg/injection, schedule: Q01DX005 (ip), vehicle: saline) was 0 of 6, the survivor count (dose: 100.0 mg/kg/injection, schedule: Q01DX005 (ip), vehicle: saline) was 0 of 6 and the survivor count (dose: 200.0 mg/kg/injection, schedule: Q01DX005 (ip), vehicle: saline) was 0 of 6.

In the case of CCN(CC)CN1C(=O)C2C3C=CC(C2C1=O)C1C2C(=O)N(CN(CC)CC)C(=O)C2C31 (configuration not stated), the T/C (dose: 200.0 mg/kg/injection, schedule: Q01DX009 (ip), vehicle: saline with Tween-80) is reported as 125 and 139 % of control.

With CCC[CH2][Sn]([CH2]CCC)([NH]c1ncnc2[nH]cnc12)[NH]c1ncnc2[nH]cnc12 the T/C (dose: 6.25 mg/kg/injection, schedule: Q01DX005 (ip), vehicle: Klucel (hydroxypropylcellulose) (HPC)) was 125 % of control, the T/C [8] was 131 % of control and the survivor count [8] was 4 of 5. For the same molecule, the survivor count [9] was 0 of 6, the survivor count (dose: 100.0 mg/kg/injection, schedule: Q01DX005 (ip), vehicle: Klucel (hydroxypropylcellulose) (HPC)) was 0 of 6 and the survivor count (dose: 200.0 mg/kg/injection, schedule: Q01DX005 (ip), vehicle: Klucel (hydroxypropylcellulose) (HPC)) was 0 of 6.

With CC(=O)Oc1ccccc1C(=O)OCC(=O)c1ccc2c(c1)Nc1ccccc1S2 the survivor count (dose: 12.5 mg/kg/injection, schedule: Q01DX001 (ip), vehicle: Klucel (hydroxypropylcellulose) (HPC)) was 6 of 6, the survivor count (dose: 25.0 mg/kg/injection, schedule: Q01DX001 (ip), vehicle: Klucel (hydroxypropylcellulose) (HPC)) was 6 of 6 and the survivor count (dose: 50.0 mg/kg/injection, schedule: Q01DX001 (ip), vehicle: Klucel (hydroxypropylcellulose) (HPC)) was 6 of 6. For the same molecule, the survivor count (dose: 100.0 mg/kg/injection, schedule: Q01DX001 (ip), vehicle: Klucel (hydroxypropylcellulose) (HPC)) was 6 of 6.

With O=C(NC(=S)c1cccs1)Nc1ccccc1 the survivor count (dose: 25.0 mg/kg/injection, schedule: Q01DX009 (ip), vehicle: saline with Tween-80) was 6 of 6.

In the case of CCC(C)(C)c1cccc(C(=O)O)c1O, the survivor count (dose: 200.0 mg/kg/injection, schedule: Q04DX003 (ip), vehicle: saline with Tween-80) is reported as 0 of 6 and the survivor count (dose: 400.0 mg/kg/injection, schedule: Q04DX003 (ip), vehicle: saline with Tween-80) is reported as 0 of 6.

CCOC(=O)c1c2c(c[nH]c1=O)CCCC2 was tested, and the survivor count (dose: 400.0 mg/kg/injection, schedule: Q01DX001 (ip), vehicle: saline with Tween-80) was 0 of 6.

With COC1=C(O)C(=O)N(C)C(=O)C1 the survivor count [5] was 0 of 6, the survivor count [6] was 0 of 6 and the survivor count [7] was 0 of 6. The survivor count (dose: 120.0 mg/kg/injection, schedule: Q01DX005 (ip), vehicle: Klucel (hydroxypropylcellulose) (HPC)) was 0 of 6 and the survivor count (dose: 240.0 mg/kg/injection, schedule: Q01DX005 (ip), vehicle: Klucel (hydroxypropylcellulose) (HPC)) was 0 of 6.

With COc1ccc(C=C2C(=O)C=CC2=O)cc1OC the survivor count (dose: 25.0 mg/kg/injection, schedule: Q04DX002 (ip), vehicle: saline with Tween-80) was 0 of 6, the survivor count (dose: 50.0 mg/kg/injection, schedule: Q04DX002 (ip), vehicle: saline with Tween-80) was 0 of 6 and the survivor count (dose: 100.0 mg/kg/injection, schedule: Q04DX002 (ip), vehicle: saline with Tween-80) was 0 of 6.

CN(C)Cc1cn(C[Si](C)(C)C)c2ccccc12 was tested, and the survivor count [1] was 0 of 6 and the survivor count [2] was 0 of 6.

With CN=C(NC)c1ccc(NC(=O)/C=C\c2ccc(C(=O)Nc3ccc(C(=NC)NC)cc3)cc2)cc1 the T/C (dose: 6.6 mg/kg/injection, schedule: Q04DX003 (ip), vehicle: saline with Tween-80) was 145 % of control.

With CSC(=CC(=O)c1ccco1)SC the survivor count [2] was 2 of 6.

With O=CC=O the T/C (dose: 100.0 mg/kg/injection, schedule: Q01DX009 (ip), vehicle: saline with Tween-80) was 135 % of control and the T/C (dose: 100.0 mg/kg/injection, schedule: Q01DX009 (ip), vehicle: saline) was 131 % of control.

In the case of CC(=O)CC(=O)C1C(S[As](C)C)CC2C3CCC4=CC(=O)C=CC4(C)C3C(=O)CC21C (configuration not stated), the survivor count [9] is reported as 6 of 6.

Reference: PubChem BioAssay AID330 (DTP/NCI, 2004)
